# Assay results as given in PubChem BioAssay AID504444 (National Center for Advancing Translational Sciences (NCATS), 2011).
# Values joined by “and” are separate entries in the source; they are usually repeats but may differ in a detail not shown here. Equal entries are not always repeated. Hit rate of the full screen: of about 360,000 compounds, about 7,500 (2.1%) were called active. This list was built around the results that the source calls inconclusive (neither active nor inactive); the mix of calls is not that of the screen. The call rests on the fitted dose curve; in most records, active means well fitted inhibition curve with a large enough effect; inconclusive means small, poorly fitted or top-dose-only effect, or effect the other way; inactive means flat fitted curve, though single readings scatter. Potencies of inconclusive entries are doubtful fits and often do not repeat.
# Experiment: Nrf2 qHTS screen for inhibitors; further: nearly all actives have a fitted effect of over 60% in size
# Settings: A549 ARE-Fluc reporter, luciferase luminescence, 18-24 h; activity change, negative = inhibition: at 46 µM (top of the series)
# In short: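 Two sequential reads on A549 ARE_Fluc cells exposed to compound for 18-24 h: a CellTiter-Fluor fluorescence read for viability, then a luciferase luminescence read for Nrf2/ARE activity.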
# On the % scale 0 is the no-effect control and ±100 the full control effect; potency means the concentration at half of the fitted maximal effect.
Structure (SMILES),Potency,"activity change, negative = inhibition"
Clc1ccc(Nc2nc(-c3ccncc3)cs2)cc1,"inconclusive: 2.06 µM [activator, full curve, poor fit]",
Cc1cccc(-n2nnc(-c3nc(-c4cccs4)no3)c2N)c1,"inconclusive: 5.8 µM [activator, full curve]",
N#Cc1cc(C(=O)c2cc(Cl)ccc2O)cn(-c2ccccc2)c1=O,,inactive: 13.2%
CCN(C(=O)c1ccco1)c1nnc(-c2ccc(OC)cc2)s1,,inactive: 8.35%
COCCCNC(=S)N1CCN(S(=O)(=O)c2ccc(OC)cc2)CC1,"inconclusive: 2.59 µM [falling, partial curve]",
COc1ccc(S(=O)(=O)N(CCc2ccccc2)CC(=O)Nc2cc(C)cc(C)c2)cc1OC,"inconclusive: 18.4 µM [falling, partial curve, poor fit]",
CCc1cccc(CC)c1NC(=O)COn1nnc2ccc(C(F)(F)F)cc21,"inconclusive: 11.6 µM [activator, partial curve, poor fit]",
CCc1cccc(C)c1NC(=O)C1CCN(C(=O)c2ccc([N+](=O)[O-])cc2)CC1,"inconclusive: 32.6 µM [falling, single point]",
Cc1cccc(NC(=O)CSc2nc3nc(C)cc(C)n3n2)c1,"inconclusive: 20.6 µM [falling, single point]",
C/C(N)=C(/C#N)C(=O)CSc1n[nH]c(-c2ccccc2Br)n1,"inconclusive: 9.2 µM [activator, partial curve, poor fit] and inconclusive: 29.1 µM [activator, single point]",
COc1ccc(C(=O)Nc2ccc(NC(=O)c3cccs3)c(OC)c2)cc1Cl,active: 9.2 µM,
CC(=O)c1c(C)[nH]c(C(=O)OCC(=O)NCc2cccs2)c1C,active: 14.6 µM,
CC(=O)c1cccc(N2C(=O)CN(S(C)(=O)=O)CC2(C)C(=O)NC2CCCC2)c1 (stereo not given),"inconclusive: 29.1 µM [activator, single point]",
Cc1cc(C(=O)CCl)c(C)n1CCc1ccccc1,,inactive: 1.5%
O=C(O)CCCN1C(=O)C2C3CC(C2C1=O)C1C(c2ccccc2)c2sc(=O)[nH]c2SC31 (stereo not given),"inconclusive: 9.2 µM [falling, partial curve, poor fit]",
COC(=O)c1scc(C#N)c1N/N=C(\C#N)S(=O)(=O)c1ccc(Cl)cc1,"inconclusive: 20.6 µM [falling, single point]",
COc1cccc(C(=O)N(Cc2ccccc2)Cc2cc3cc4c(cc3[nH]c2=O)OCCO4)c1,active: 2.59 µM,
COc1cccc(N2CCN(S(=O)(=O)c3ccc4c(c3)N(C(C)=O)CCO4)CC2)c1,"inconclusive: 23.1 µM [falling, single point]",
O=C(COC(=O)C1CC(=O)N(Cc2ccccc2)C1)c1ccc(F)cc1 (stereo not given),"inconclusive: 29.1 µM [activator, single point]",
O=C(N/N=C/c1cccs1)c1cccc2cc[nH]c12,"inconclusive: 16.4 µM [activator, single point]",
O=C(Nc1ccc2oc(-c3cccnc3)nc2c1)c1cc2ccccc2o1,"inconclusive: 4.11 µM [falling, full curve]",
NC(=O)/C=C\c1cn(-c2ccccc2)nc1-c1ccc2c(c1)OCCO2,"inconclusive: 18.4 µM [falling, single point]",

Structure (SMILES),Potency,"activity change, negative = inhibition"
COc1ccc(C2C=C3CNS(=O)(=O)C3CC2OC(=O)c2ccc(C(F)(F)F)cc2)cc1 (stereo not given),"inconclusive: 20.6 µM [falling, single point]",
COc1ccc(OC)c(NC(=O)CC2SC(=Nc3ccccc3)N(CCc3ccccn3)C2=O)c1 (stereo not given),"inconclusive: 9.2 µM [falling, partial curve, poor fit]",
CC(=O)c1cccc(NC(=S)NCCc2ccc(Cl)cc2)c1,,inactive: -22.5%
Cc1ccc(O)c(C(=O)c2cc(C#N)c(=O)n(-c3nccs3)c2)c1,"inconclusive: 7.31 µM [activator, single point]",
COc1ccc(OCC(=O)NC(Cc2c[nH]c3ccccc23)C(=O)O)cc1 (stereo not given),,inactive: 1.71%
COc1ccc(-c2nn(-c3ccccc3)cc2C(=O)OCC(=O)c2ccc(C)c([N+](=O)[O-])c2)cc1,"inconclusive: 23.1 µM [falling, partial curve, poor fit]",
COc1cc(C)ccc1OCCCON1C(=O)CCC1=O,"inconclusive: 3.26 µM [falling, partial curve, poor fit]",
CCN(CC)c1cc(Cl)c2nonc2c1N,,inactive: 16.5%
CCc1nnc(SC(CC)C(=O)Nc2cc(C)ccc2C)c2cc3occc3n12 (stereo not given),"inconclusive: 18.4 µM [falling, partial curve]",
COc1ccc(-c2cc(=O)c3ccccc3s2)cc1,"inconclusive: 7.31 µM [activator, partial curve]",
COc1ccccc1-c1nnc(SCC(=O)Nc2nc(-c3ccccc3)cs2)n1C,"inconclusive: 25.9 µM [falling, single point]",
Cc1cc(Nc2ccc(Cl)cc2)n(-c2cccc(Cl)c2)n1,"inconclusive: 29.1 µM [falling, single point]",
Nc1nc(SCc2ccccc2)n[nH]1,"inconclusive: 16.4 µM [activator, partial curve, poor fit]",
COc1ccc(C(=O)OCC(=O)NCc2ccco2)cc1S(=O)(=O)N1CCN(c2cccc(Cl)c2)CC1,"inconclusive: 29.1 µM [falling, single point]",
Cn1c(Oc2ccc(Cl)cc2)c(C=O)c2ccccc21,"inconclusive: 13 µM [falling, partial curve]",
CCCOc1ccc(C(=O)N(CC(C)C)c2c(N)n(Cc3ccccc3)c(=O)[nH]c2=O)cc1,"inconclusive: 32.6 µM [falling, partial curve, poor fit]",
CCOC(=O)c1cnc2c(OC)cccc2c1N1CC(C)CC(C)C1 (stereo not given),"inconclusive: 23.1 µM [falling, partial curve, poor fit]",
CCn1c(=O)c2cc(C(=O)NCCc3ccc(Cl)cc3)sc2c2ccccc21,"inconclusive: 2.91 µM [falling, full curve, poor fit]",
COc1ccc(Cc2nc3ccc(C(=O)N(C)Cc4nccs4)cc3o2)cc1OC,,inactive: -11.3%
Cc1cccc(NC(=S)N(CCCN2CCCC2)Cc2cccn2Cc2ccc(Cl)cc2)c1,"inconclusive: 32.6 µM [falling, single point]",
O=C(COc1ccc(S(=O)(=O)NC2CCCC2)cc1)N1CCCCC1,,inactive: -30.7%
O=C(CSc1ncnc2c1nnn2Cc1ccccc1F)N1CCN(c2ccccc2)CC1,"inconclusive: 25.9 µM [falling, single point]",

# Retrieved one by one from above (2):
Structure (SMILES),Potency,"activity change, negative = inhibition"
Cc1cc(Nc2ccc(Cl)cc2)n(-c2cccc(Cl)c2)n1,"inconclusive: 29.1 µM [falling, single point]",
CCn1c(=O)c2cc(C(=O)NCCc3ccc(Cl)cc3)sc2c2ccccc21,"inconclusive: 2.91 µM [falling, full curve, poor fit]",

# The results go on.

Structure (SMILES),Potency,"activity change, negative = inhibition"
O=C(Nc1ccccc1SCC1CSc2nc3ccccc3c(=O)n21)c1ccccc1Cl (stereo not given),"inconclusive: 20.6 µM [activator, single point]",
CCn1c(=O)c2sccc2n2c(CCC(=O)Nc3ccc(C(C)C)cc3)nnc12,"inconclusive: 9.2 µM [falling, partial curve, poor fit]",
Cc1cccn2cc(-c3cccc(S(=O)(=O)N4CC(C)OC(C)C4)c3)nc12 (stereo not given),,inactive: 0.761%
COc1ccc(NS(=O)(=O)c2ccc(C)c(NC(=O)NC3CCCCC3)c2)cc1,"inconclusive: 29.1 µM [falling, single point]",
Cc1cc2oc(=O)cc(C)c2cc1NC(=O)CCl,"inconclusive: 10.3 µM [falling, single point]",
Cc1ccc(NC(=O)c2c(C)oc3ncn(CC(C)C)c(=O)c23)nc1,"inconclusive: 20.6 µM [falling, single point]",
COc1ccc(-c2cc(C(=O)N/N=C/c3sccc3C)c3ccccc3n2)c(OC)c1,"inconclusive: 6.51 µM [activator, partial curve]",
CC(NC(=O)CSc1nc(-c2ccccc2F)nc2cc(=O)[nH]n12)c1nc2ccccc2n1C (stereo not given),,inactive: 0%
CCCS(=O)(=O)NCCc1csc(-c2ccc(OC)c(OC)c2)n1,"inconclusive: 8.2 µM [falling, partial curve, poor fit]",
CCOC(=O)C1=C(C)N=c2s/c(=C\c3cccc(OCC(=O)O)c3)c(=O)n2C1c1ccccc1OC (stereo not given),,inactive: 2.25%
CC12CCC(=O)C=C1CCC1C2C(=O)CC2(C)C1CCC2(O)C(=O)CO (stereo not given),,inactive: 5.69%
COc1ccc(C(=O)NC(=S)NC2CCCCC2)cc1,"inconclusive: 14.6 µM [activator, partial curve, poor fit]",
COCCn1nnnc1C(c1ccc(OC)c(OC)c1)N1CCN(c2nc3ccccc3s2)CC1 (stereo not given),active: 9.2 µM,
COc1ccccc1NC(=O)[C@H](COCc1ccccc1)NC(=O)OC(C)(C)C,"inconclusive: 16.4 µM [falling, partial curve]",
Cc1sc2ncn3cnnc3c2c1C,"inconclusive: 20.6 µM [falling, partial curve]",
CC(=O)N1CC(C)Sc2ccc(S(=O)(=O)NCc3ccc(Cl)cc3)cc21 (stereo not given),"inconclusive: 29.1 µM [falling, single point]",
COc1ccc(N2CCN(C(=O)CN3C(=O)NC4(CCCc5ccccc54)C3=O)CC2)cc1 (stereo not given),"inconclusive: 25.9 µM [falling, single point]",
COc1ccc(-n2ncc3c(=O)n(CC(=O)N4c5ccccc5CC4C)cnc32)cc1 (stereo not given),active: 8.2 µM,
CCOC(=O)c1c(C)nc2sc(C(N)=O)c(N)c2c1-c1ccc(OC)cc1,"inconclusive: 29.1 µM [falling, single point]",
O=C(Nc1nccs1)c1ccc(-c2ccccc2Cl)o1,"inconclusive: 1.64 µM [activator, partial curve]",
COc1ccccc1NS(=O)(=O)c1cc(NC(=O)c2ccco2)ccc1N1CCOCC1,"inconclusive: 1.3 µM [falling, full curve, poor fit]",

# Exported as tab-separated lines: part of the list above
Structure (SMILES)	Potency	activity change, negative = inhibition
Cc1cccc(-n2nnc(-c3nc(-c4cccs4)no3)c2N)c1	inconclusive: 5.8 µM [activator, full curve]	
O=C(O)CCCN1C(=O)C2C3CC(C2C1=O)C1C(c2ccccc2)c2sc(=O)[nH]c2SC31 (stereo not given)	inconclusive: 9.2 µM [falling, partial curve, poor fit]	
